At least one structure is not confirmed: it was looked up by name or label, or the drawing left a doubt.
Assays:
[1] = tested on: dendric cells (DC) derived from human peripheral blood monocytes; test: Immune activation activity: induction of dendritic cells from peripheral blood monocytes, CD80 expression by flow cytometry; type: cell-based; conditions: 200 μg/ml added on sixth day
Source text: Dendritic cells are involved in the establishment of immunity. Dendritic cells may also be called arborescent cells, dendritic leukocyte, or D cells. This is the generic term for cell groups having dendritic form derived from myelocytes distributed in various tissue organs in the living body except for the brain. The cell groups include lymphoid dendritic cells, Langerhans cells, veil cells, inter-connected cells, and interstitional cells. Accompanying an inflammation response caused by invasion of foreign matter, the cells perform pinocytosis, and move from a local spot via the vas afferens to an associated lymph node or to the spleen through bloodstream. The cells are known to start an immune response after they reach a T cell-dependent region by presenting an antigen in a form combined with class II antigen and by activating specific T cells. Namely, the cells play an important role in the immune system. In the present example, the immune activation activity of ABMK0415 and ABMK6873 were confirmed by assaying the induction power of monocytes to dendritic cells.
Peripheral blood of two healthy people was used as a material with donor consent. […]
All DCs in the dish were collected on the seventh day after the culture started. The surface antigen thereof was analyzed by flow cytometry using a monoclonal antibody (anti-CD80; BD Bioscience). […]

HL60 cell line = test: Cell growth suppression activity (Test 1), cell number by counting chamber; type: cell-based
Method: 1. Cell growth suppression activity (Test 1): For assay, the Collagen gel droplet embedded culture-drug sensitivity test (CD-DST method) and a counting chamber were used.
A method using a counting chamber was performed following the method described in Rinsho Kensaho Teiyo (Kanai's Manual of Clinical Laboratory Medicine), 30th Ed. (Aug. 20, 1993; Kanehara & Co., Ltd.; Tokyo).
Based on the results of measurement using HL60 cell lines, it became clear that the CD-DST method is not suitable for measuring the growth state of suspended cells. Therefore, the cell growth suppression activity was measured using a counting chamber.
First, growth of HL60 cell lines was examined in the presence of ABMK-22 at various concentrations to obtain a growth curve of the HL60 line. More specifically, an initial number of cells of HL 60 cell lines was set to be 200,000/ mL. ABMK-22 was added to have concentrations of 0.1, 0.25, 0.5, 0.75, 1, 2, 2.5, 3, 4and 5 mg/1 mL, respectively and cultured. The number of the cells was measured over time for four days.
Each of the symbols in FIG. 1 indicates the result of measurement of the number of the cells (number/ml) in the presence of ABMK-22 at the concentration of the number indicated in the lower part of FIG. 1 by the symbols. […]

SMILES: O=Cc1ccc(CO)n1CCCC(=O)O [ABMK0415, N-(3-carboxypropyl)-2-formyl-5-hydroxy-methylpyrrole]
- expression induction of CD80 molecules [1]: remarkably strong expression induction of CD80 molecules
- growth of HL-60 cells (HL60 cell line; 2.07×10^−4M): remarkably suppressed
- growth of HL-60 cells (HL60 cell line; various concentrations (2.07×10^−6M to 2.07×10^−4M ABMK0415; 2.7×10^−6M to 2.7×10^−4M ABMK6873)): suppress growth of HL-60 cells in nearly a concentration-dependent manner
